{"source": "patent US6780838B2", "about": "“Compounds for treating fungal pathologies of the oral cavity” (priority 2001, dated 2004)", "tested_on": "C. albicans", "assay": "C. albicans colony forming units (viability) after incubation with peptide", "format": "cell-based", "conditions": "10^−6 M; p<0.01; FIG. 6; effect similar to that exerted by α-MSH", "method": "C. albicans (clinical isolate) was obtained from the collection of the Department of Microbiology, Ospedale Maggiore di Milano and maintained on Sabouraud's agar slants and periodically transferred to Sabouraud's agar plates and incubated for 48 hours at 28° C. To prepare a stationary growth phase yeast, a colony was taken from the agar plate and transferred into 30 ml Sabouraud-dextrose broth and incubated for 72 hours at 32° C. Cells were centrifuged and suspended in Hank's balanced salt solution (“HBSS”) to the desired concentration. Viability, determined by the exclusion of 0.01% methylene blue, remained >98%.\nC. albicans (1×10^6/ml in HBSS) was incubated in the presence of absence or (1-13) (SEQ ID NO: […]) or (11-13) (SEQ ID NO: 1) at concentrations in the range of 10^−15 M to 10^−6 M for 2 hours at 37° C. Cells were then washed in cold distilled water and diluted with HBSS to a concentration of 100 organisms/ml. One-ml aliquots were dispensed on blood agar plates and incubated for 48 hours at 37° C. Organism viability was estimated from the number of colonies formed.\nIn subsequent experiments using familiar procedures we compared activity of α-MSH (4-10) (SEQ ID NO: 2), (6-13) (SEQ ID NO: 3), (11-13) (SEQ ID NO: 1), ACTH (SEQ ID NO: 5) (1-39), (18-39) (SEQ ID NO: 6) and fluconazole, the latter an established antifungal agent. […]", "note": "At least one structure is not confirmed: it was looked up by name or label, or the drawing left a doubt.", "data": [{"smiles": "C=C[C@@]1(C)CC(=O)[C@]2(O)[C@@]3(C)[C@@H](O)CCC(C)(C)[C@@H]3[C@H](O)[C@H](OC(C)=O)[C@@]2(C)O1", "note": "[forskolin]", "values": [{"measurement": "C. albicans CFU relative to control", "value": "markedly inhibited"}]}]}
